# Source: article PMC11460698
# By UniProt entry, the sequences of proteins in these tests, tags left out. Where a name states a change or a piece, a line headed by the entry shows the natural chain unless it says otherwise.
# UniProt P35222: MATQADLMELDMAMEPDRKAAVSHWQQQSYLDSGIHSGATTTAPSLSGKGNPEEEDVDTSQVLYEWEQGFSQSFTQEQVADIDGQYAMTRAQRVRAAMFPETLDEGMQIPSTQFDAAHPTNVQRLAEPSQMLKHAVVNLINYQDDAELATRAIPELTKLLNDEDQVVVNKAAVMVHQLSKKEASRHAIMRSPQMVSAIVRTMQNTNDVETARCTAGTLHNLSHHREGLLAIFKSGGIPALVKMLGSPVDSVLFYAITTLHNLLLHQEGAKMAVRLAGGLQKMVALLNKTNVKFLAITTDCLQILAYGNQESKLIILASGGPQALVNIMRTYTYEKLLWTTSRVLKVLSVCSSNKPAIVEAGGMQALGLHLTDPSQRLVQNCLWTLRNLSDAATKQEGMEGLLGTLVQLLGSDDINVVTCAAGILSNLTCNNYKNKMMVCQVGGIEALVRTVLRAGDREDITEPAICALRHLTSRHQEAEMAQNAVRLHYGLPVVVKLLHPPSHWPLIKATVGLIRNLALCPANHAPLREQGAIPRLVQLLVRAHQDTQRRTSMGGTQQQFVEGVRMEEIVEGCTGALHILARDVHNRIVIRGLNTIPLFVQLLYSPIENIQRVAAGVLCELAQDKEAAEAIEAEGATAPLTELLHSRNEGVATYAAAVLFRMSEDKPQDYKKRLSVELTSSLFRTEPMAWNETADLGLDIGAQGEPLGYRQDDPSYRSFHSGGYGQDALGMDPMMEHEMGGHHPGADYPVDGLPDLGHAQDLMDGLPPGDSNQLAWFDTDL
# UniProt Q92793: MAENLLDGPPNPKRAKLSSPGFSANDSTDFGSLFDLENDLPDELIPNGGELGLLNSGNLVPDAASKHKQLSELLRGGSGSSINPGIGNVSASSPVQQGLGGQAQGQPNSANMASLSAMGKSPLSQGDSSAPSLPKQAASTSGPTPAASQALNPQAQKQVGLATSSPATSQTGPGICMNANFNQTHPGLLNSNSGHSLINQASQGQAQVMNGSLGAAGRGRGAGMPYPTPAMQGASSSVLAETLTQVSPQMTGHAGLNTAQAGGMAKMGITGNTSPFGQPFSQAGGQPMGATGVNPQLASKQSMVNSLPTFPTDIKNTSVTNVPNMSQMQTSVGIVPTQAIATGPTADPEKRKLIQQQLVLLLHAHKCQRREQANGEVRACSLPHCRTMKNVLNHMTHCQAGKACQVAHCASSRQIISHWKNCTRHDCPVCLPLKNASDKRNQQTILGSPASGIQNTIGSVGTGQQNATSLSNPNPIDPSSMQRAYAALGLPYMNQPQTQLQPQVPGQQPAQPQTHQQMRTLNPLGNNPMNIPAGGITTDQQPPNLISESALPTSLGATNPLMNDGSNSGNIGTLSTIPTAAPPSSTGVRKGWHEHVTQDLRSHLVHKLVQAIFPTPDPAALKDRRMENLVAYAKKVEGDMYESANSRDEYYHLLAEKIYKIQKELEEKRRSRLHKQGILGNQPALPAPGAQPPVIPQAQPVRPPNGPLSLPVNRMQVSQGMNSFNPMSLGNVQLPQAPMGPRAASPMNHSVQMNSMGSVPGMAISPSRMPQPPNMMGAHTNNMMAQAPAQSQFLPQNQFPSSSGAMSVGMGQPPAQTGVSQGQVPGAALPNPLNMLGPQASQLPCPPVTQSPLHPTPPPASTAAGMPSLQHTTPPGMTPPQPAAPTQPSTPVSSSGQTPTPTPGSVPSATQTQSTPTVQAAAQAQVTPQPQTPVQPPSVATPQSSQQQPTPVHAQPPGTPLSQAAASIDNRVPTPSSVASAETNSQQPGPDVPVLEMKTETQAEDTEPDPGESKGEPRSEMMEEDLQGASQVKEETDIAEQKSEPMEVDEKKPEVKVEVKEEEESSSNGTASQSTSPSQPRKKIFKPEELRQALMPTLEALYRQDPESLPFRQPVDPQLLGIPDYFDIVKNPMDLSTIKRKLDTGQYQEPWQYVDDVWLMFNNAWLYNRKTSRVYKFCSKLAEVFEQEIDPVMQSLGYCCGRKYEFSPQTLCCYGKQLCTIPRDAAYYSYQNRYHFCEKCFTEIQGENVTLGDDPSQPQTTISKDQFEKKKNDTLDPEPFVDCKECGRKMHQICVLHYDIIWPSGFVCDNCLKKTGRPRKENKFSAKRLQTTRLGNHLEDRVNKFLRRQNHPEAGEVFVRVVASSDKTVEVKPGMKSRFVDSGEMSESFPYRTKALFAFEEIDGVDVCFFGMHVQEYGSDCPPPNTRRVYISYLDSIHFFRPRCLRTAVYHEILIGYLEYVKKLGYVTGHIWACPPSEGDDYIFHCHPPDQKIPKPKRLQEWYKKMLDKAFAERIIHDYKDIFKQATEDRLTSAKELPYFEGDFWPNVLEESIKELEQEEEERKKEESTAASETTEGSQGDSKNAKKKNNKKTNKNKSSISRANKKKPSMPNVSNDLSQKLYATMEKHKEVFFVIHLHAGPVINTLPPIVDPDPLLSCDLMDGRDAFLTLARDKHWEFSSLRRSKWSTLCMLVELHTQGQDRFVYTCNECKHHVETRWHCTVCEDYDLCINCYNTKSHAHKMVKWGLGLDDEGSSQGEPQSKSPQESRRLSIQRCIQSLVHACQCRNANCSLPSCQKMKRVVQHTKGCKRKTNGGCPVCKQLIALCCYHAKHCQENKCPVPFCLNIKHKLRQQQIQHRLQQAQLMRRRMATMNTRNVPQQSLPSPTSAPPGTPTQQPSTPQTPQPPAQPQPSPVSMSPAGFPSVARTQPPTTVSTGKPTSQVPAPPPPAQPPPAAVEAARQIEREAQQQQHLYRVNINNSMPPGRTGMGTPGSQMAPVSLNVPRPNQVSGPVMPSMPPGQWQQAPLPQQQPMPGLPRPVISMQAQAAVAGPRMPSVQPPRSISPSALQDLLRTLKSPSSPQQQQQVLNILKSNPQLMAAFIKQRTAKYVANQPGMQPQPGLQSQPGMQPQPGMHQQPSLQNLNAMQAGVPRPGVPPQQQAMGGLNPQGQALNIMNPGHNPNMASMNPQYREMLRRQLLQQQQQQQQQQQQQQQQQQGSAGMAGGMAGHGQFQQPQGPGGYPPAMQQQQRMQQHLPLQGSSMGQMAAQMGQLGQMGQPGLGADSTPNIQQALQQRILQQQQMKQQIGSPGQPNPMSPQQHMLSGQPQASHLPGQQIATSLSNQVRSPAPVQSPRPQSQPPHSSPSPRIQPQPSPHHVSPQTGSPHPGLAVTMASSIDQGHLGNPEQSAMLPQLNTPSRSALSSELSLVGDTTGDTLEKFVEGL
# UniProt P36402: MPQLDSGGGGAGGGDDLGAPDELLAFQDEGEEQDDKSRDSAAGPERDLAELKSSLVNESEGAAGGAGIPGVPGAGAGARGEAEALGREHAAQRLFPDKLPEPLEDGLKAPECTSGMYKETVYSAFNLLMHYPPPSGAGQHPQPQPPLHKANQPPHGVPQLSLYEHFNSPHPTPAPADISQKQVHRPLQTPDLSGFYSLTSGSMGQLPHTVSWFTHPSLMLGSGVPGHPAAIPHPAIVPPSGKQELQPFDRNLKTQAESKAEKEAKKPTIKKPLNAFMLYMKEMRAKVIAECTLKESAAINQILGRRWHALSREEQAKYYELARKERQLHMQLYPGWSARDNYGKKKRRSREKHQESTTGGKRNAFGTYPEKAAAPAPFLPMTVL
# UniProt Q09472: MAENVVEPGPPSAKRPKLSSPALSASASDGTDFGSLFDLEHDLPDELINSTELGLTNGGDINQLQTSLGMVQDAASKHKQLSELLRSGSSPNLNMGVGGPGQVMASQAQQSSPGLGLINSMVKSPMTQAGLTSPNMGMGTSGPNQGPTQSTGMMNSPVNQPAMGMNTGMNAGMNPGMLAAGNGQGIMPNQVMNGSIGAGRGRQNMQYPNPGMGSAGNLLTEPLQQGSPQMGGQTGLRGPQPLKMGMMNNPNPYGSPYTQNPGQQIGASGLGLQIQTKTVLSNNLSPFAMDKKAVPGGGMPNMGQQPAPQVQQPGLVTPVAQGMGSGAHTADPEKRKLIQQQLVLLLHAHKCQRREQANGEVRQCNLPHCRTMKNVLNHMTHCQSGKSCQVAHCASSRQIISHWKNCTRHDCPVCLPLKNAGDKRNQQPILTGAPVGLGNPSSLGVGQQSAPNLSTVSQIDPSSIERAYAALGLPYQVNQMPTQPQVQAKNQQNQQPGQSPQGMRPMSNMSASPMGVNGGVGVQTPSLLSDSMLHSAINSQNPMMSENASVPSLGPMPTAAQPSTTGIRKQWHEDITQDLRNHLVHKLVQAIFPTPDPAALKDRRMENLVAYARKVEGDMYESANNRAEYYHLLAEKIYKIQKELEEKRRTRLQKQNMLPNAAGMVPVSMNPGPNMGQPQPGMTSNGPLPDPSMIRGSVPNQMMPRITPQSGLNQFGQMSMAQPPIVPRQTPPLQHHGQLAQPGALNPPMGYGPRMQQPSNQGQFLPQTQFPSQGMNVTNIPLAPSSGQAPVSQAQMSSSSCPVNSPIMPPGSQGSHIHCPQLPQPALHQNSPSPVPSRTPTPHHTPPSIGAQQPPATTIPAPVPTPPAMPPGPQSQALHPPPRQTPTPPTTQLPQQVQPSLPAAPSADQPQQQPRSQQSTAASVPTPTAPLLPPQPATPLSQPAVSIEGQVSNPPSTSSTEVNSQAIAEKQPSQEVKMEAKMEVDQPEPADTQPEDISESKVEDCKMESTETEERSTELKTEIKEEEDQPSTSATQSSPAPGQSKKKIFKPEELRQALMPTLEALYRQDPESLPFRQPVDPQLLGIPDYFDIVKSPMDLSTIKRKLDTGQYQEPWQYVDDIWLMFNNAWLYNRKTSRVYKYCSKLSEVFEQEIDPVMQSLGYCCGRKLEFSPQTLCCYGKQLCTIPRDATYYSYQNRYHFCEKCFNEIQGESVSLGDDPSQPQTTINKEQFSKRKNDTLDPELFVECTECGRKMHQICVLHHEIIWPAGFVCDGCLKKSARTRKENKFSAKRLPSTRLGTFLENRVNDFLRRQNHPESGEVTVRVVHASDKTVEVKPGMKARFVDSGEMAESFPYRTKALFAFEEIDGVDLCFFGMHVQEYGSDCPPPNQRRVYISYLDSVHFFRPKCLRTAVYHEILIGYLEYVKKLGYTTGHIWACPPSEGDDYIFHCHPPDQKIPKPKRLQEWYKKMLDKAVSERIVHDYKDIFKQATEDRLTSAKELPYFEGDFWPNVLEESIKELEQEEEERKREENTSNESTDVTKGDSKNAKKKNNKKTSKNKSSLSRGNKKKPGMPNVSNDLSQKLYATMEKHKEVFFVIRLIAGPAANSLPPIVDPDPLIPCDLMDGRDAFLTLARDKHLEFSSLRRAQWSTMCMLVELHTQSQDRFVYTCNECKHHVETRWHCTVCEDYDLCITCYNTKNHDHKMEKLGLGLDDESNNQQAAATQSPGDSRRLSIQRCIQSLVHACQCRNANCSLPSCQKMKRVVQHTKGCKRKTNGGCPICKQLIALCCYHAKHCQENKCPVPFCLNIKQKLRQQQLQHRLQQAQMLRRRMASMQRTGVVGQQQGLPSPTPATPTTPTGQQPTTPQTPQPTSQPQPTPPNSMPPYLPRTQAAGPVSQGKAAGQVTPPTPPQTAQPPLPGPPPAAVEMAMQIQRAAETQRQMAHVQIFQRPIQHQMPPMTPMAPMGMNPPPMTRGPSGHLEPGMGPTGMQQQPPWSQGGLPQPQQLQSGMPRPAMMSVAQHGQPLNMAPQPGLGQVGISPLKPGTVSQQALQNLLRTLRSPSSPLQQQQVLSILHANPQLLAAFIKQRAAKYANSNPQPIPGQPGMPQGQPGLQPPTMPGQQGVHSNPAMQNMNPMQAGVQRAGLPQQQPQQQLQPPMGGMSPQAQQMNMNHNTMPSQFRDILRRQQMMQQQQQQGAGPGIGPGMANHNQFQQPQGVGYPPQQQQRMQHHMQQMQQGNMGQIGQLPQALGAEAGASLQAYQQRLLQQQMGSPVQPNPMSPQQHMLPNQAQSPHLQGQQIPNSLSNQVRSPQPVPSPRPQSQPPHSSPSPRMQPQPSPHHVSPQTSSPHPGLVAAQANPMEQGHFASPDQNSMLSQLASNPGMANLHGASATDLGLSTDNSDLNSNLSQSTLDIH
# These are yes or no findings as the source states them, for the method shown. In cells and extracts the contact can be indirect. Some results given as binding are weak or reduced against the parent protein; the word gives no strength.
# Biological target: FLAG-β-catenin* (human β-catenin with S33Y) (human) (UniProt P35222)
# Assay: co-IP; anti-FLAG M2 affinity gel on clarified lysates of HEK293T β-catenin KO cells transfected with FLAG-β-catenin constructs; lysis buffer 50 mM Tris HCl pH 7.4, 150 mM NaCl, 1 mM EDTA, 1% Triton X-100; eluates blotted for the partners
row,binding,Substance
1,binds,BRG1 (from UniProt P51532 1-1647)
2,binds,CBP (from UniProt Q92793 1-2442)
3,binds,TCF7 (from UniProt P36402 1-384)
4,binds,p300 (from UniProt Q09472 1-2414)
